Source: the supplement of paper PMC12024529
Structures can show the parent of a compound that is named as a salt. The list shows a part of the results. Part of the spread comes from offsets between plates or batches.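 HEK293 lines stably express B-domain-deleted factor VIII fused to Gaussia luciferase, wild type or a misfolding-prone missense mutant. Scores equal triplicate-well mean luminescence minus DMSO mean, divided by DMSO standard deviation; scores of 2 or higher are hits. Low scores may indicate reduced secretion or worse cell viability.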

Legend:
HEK293 WT BDD-FVIII-Gluc = assay: secreted FVIII-Gluc luciferase Z-score vs DMSO control; higher = more FVIII-Gluc secretion; conditions: 5 µM; 24 h
[1] = tested on: HEK293 p.N1941S BDD-FVIII-Gluc; assay: as above; conditions: 5 µM; 24 h

Structure (SMILES)	secreted FVIII-Gluc luciferase Z-score (HEK293 WT BDD-FVIII-Gluc)	secreted FVIII-Gluc luciferase Z-score [1]
NC(=O)c1cnccn1 [Pyrazinamide (Pyrazinoic acid amide)]	inactive: -1.16	inactive: -0.0652
CN(C/C=C/C#CC(C)(C)C)Cc1cccc2ccccc12 [Terbinafine hydrochloride (Lamisil)]	inactive: 0.109	inactive: -0.195
COc1ccccc1OCCNCC(O)COc1cccc2[nH]c3ccccc3c12 (stereo not drawn) [Carvedilol]	inactive: -2.3	inactive: -1.59
CN[C@@H]1[C@H](O)[C@H](NC)[C@H]2O[C@@]3(O)C(=O)C[C@@H](C)O[C@H]3O[C@@H]2[C@H]1O [Spectinomycin  hydrochloride]	inactive: -1.8	inactive: -0.557
